Patent publication US12397037B2, “Methods and compositions for immunomodulation” (CHILDREN'S MEDICAL CENTER CORPORATION, priority 2014, dated 2025)
Entries after “also recorded” stand apart in the source; their conditions may differ. At least one structure is not confirmed: it was looked up by name or label, or the drawing left a doubt.

Test system: C57BL/6 recipients of fully mismatched BALB/c cardiac allografts
Assay: Fully MHC mismatched cardiac allograft survival (BALB/c into C57BL/6)
Assay type: in vivo, mice
Conditions: rapamycin 0.2 mg/kg on day 0 and day 2
Description: FIG. 2 depicts graft survival curves. Cardiac allografts (Balb/c) were transplanted into fully MHC mismatched recipients (C57BL/6). Unmanipulated recipients reject these allografts within 7-8 days.
FIG. 3 depicts graft survival curves. Cardiac allografts (Balb/c) were transplanted into fully MHC mismatched recipients (C57BL/6). Unmanipulated recipients reject these allografts within 7-8 days.
FIG. 4 depicts graft survival curves of C56BL6 recipient mice after transplantation with Balb/C donor hearts.
Described herein is the treatment of C57BL/6 recipients of fully mismatched BALB/c cardiac allografts with Sema3F.
Ba1b/C donor hearts were transplanted into C56BL6 mice.

## CO[C@H]1C[C@@H]2CC[C@@H](C)[C@@](O)(O2)C(=O)C(=O)N2CCCC[C@H]2C(=O)O[C@H]([C@H](C)C[C@@H]2CC[C@@H](O)[C@H](OC)C2)CC(=O)[C@H](C)/C=C(\C)[C@@H](O)[C@@H](OC)C(=O)[C@H](C)C[C@H](C)/C=C/C=C/C=C/1C [rapamycin, reference compound]
  graft survival, rapamycin in combination with Sema3F(-expressing cells): failed to further increase survival; also recorded: No additive graft prolongation effect was observed
